{"source": "paper PMC12044875", "binders": {"B1": {"name": "Superoxide dismutase 2 (enzyme, UniProt P07895 25-222)", "chain": "KHSLPDLPYDYGALEPHINAQIMQLHHSKHHATYVNNLNVTEEKYHEALAKGDVTTQVALQPALKFNGGGHINHSIFWTNLSPKGGGEPKGELLEAIKRDFGSFEKFKEKLTAVSVGVQGSGWGWLGFNKEQGRLQIAACSNQDPLQGTTGLIPLLGIDVWEHAYYLQYKNVRPDYLKAIWNVINWENVSQRYIVCKK"}, "B2": {"name": "Surfactant protein D (protein, UniProt P35248 20-374)", "chain": "AEMKTLSQRSITNTCTLVLCSPTENGLPGRDGRDGREGPRGEKGDPGLPGPMGLSGLPGPRGPVGPKGENGSAGEPGPKGERGLVGPPGSPGISGPAGKEGPSGKQGNIGPQGKPGPKGEAGPKGEVGAPGMQGSAGAKGPAGPKGERGAPGEQGAPGNAGAAGPAGPAGPQGAPGSRGPPGLKGDRGAPGDRGIKGESGLPDSAALRQQMEALNGKLQRLEAAFSRYKKAALFPDGQSVGDKIFRAANSEEPFEDAKEMCRQAGGQLASPRSATENAAVQQLVTAHSKAAFLSMTDVGTEGKFTYPTGEALVYSNWAPGEPNNNGGAENCVEIFTNGQWNDKACGEQRLVICEF"}}, "key": {"[1]": {"biological_target": "T1, Surfactant protein D (UniProt P35248)", "T1 sequence": "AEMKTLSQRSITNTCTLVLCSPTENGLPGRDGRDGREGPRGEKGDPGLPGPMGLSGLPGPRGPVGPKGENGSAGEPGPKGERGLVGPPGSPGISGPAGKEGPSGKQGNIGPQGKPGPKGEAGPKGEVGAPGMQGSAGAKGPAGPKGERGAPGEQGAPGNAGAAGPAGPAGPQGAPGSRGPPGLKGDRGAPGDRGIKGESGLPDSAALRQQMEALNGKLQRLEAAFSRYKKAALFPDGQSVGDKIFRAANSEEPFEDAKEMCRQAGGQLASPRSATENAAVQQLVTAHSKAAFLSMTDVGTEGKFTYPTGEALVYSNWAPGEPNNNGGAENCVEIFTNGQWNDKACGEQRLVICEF", "test": "co-IP; lysate of rat chondrocytes transfected with pcDNA3.1-SP-D and incubated with 3-TYP for 24 h; anti-SP-D and anti-SOD2 antibodies at 4 °C overnight, protein A Sepharose 1 h at 4 °C, western blotting; SP-D and SOD2 each used as bait"}, "[2]": {"biological_target": "T2, Superoxide dismutase 2 (rat (endogenous in primary rat chondrocytes)) (UniProt P07895)", "T2 sequence": "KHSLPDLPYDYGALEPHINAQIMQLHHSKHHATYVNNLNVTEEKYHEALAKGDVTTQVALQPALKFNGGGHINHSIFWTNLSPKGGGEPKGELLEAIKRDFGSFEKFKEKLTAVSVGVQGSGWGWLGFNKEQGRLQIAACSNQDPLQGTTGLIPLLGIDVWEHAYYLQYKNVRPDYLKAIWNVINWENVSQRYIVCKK", "test": "co-IP; lysate of rat chondrocytes transfected with pcDNA3.1-SP-D and incubated with 3-TYP for 24 h; anti-SP-D and anti-SOD2 antibodies at 4 °C overnight, protein A Sepharose 1 h at 4 °C, western blotting; SP-D and SOD2 each used as bait"}}, "note": "These are yes or no findings as the source states them, for the method shown. In cells and extracts the contact can be indirect. Some binding calls cover weakened binding; strength is not graded here."}
{"binder": "B1", "values": [{"measurement": "binding", "setting": "[1]", "value": "binds"}]}
{"binder": "B2", "values": [{"measurement": "binding", "setting": "[2]", "value": "binds"}]}
